Results reported in PMC4826439.
Results are given in words; binding and its absence hold for the method and conditions named. In cells and extracts the contact can be indirect. Binding can be weak; no strength is given.

Chains of the proteins cited; added tags and fusions are not shown. Lines headed by an entry give the natural chain unless they say otherwise; changes in a name come on top.
UniProt Q9Z148: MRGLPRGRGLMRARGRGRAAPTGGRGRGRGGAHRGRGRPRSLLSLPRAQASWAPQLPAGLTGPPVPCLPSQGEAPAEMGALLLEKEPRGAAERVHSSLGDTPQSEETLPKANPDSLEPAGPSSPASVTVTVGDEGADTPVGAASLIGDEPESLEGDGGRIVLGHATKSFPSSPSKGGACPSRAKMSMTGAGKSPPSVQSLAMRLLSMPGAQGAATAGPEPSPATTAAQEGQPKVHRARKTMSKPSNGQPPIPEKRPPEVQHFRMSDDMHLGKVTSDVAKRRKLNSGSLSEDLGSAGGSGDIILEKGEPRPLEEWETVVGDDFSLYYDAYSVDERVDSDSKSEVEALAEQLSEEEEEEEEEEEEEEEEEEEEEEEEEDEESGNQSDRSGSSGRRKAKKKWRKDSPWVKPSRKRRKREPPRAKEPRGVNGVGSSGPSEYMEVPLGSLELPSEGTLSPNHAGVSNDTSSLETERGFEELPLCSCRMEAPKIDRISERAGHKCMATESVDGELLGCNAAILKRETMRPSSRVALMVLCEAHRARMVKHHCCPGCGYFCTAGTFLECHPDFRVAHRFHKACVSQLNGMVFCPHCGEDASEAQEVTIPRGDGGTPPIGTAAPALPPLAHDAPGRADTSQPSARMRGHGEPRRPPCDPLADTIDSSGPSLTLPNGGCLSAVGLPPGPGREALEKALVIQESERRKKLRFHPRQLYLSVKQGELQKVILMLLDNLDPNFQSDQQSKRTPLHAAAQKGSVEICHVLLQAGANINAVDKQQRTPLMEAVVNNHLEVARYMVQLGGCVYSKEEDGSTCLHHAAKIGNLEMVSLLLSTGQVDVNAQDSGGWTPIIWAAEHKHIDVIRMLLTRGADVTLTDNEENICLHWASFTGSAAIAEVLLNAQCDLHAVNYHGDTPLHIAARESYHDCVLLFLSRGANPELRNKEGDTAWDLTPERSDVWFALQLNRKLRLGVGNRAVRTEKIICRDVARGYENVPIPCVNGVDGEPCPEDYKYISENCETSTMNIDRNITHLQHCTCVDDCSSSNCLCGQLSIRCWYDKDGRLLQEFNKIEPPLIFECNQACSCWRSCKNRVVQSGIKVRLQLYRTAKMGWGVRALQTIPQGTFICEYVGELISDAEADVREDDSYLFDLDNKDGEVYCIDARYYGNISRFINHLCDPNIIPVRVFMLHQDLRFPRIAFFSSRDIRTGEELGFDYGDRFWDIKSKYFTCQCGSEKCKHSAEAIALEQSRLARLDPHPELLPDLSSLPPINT

Target: shRNA-resistant G9a with ANK domain point mutations, unable to bind H3K9me1/me2 (shR-ANKm) (UniProt Q9Z148)
Assay: co-IP; immunoprecipitation with anti-G9a antibody from 400-500 ug of nuclear extract of ESC lines expressing shR forms of G9a (endogenous G9a knocked down); western blot

## DNMT3B (from UniProt O88509 1-859)
  binding: binds
